# Measured values as given in the supplement of paper PMC5770031.
# The other results are listed elsewhere or left out. This data set is noisy: repeats of one test often differ as much as different tests do.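 Flies heterozygous for the ATM8 allele over a balancer chromosome carrying normal ATM were mated with each other on treated food. Parents laid eggs for 5–6 days and the young then developed for about 12 days, so both parents and larvae ate the compound. The read-out is the share of all emerged adults that carry two ATM8 copies, compared with 2% DMSO control vials. The paper called compounds neutral at 10–20% such offspring, harmful below 10%, and helpful above 20%.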 Peptide text beside a SMILES is read from it. * marks the point of attachment. NHCH2CH2OH = OCCN*; For = O=C*
# Test system: Drosophila melanogaster ATM8 (temperature-sensitive ATM allele)
# Experiment: fraction of eclosed F1 progeny that are homozygous ATM8 (rescue of developmental lethality); higher = more rescue of ATM8 developmental lethality; extreme values may be limits of the assay
# Conditions: compound concentration applied to food 0.2 mM; 21 °C
row,Compound,fraction of eclosed F1 progeny that are homozygous ATM8
1,Oc1ncnc2[nH]ncc12,0.167
2,COc1ccc(C(=O)c2ccccc2)c(O)c1,0.239
3,CC1(C)CCC[C@]2(C)[C@H]3CC(=O)O[C@]3(C)CC[C@@H]12,0.0667
4,COc1ncnc(NS(=O)(=O)c2ccc(N)cc2)c1OC,0.23
5,CC1(C)C(=O)C=CC2(C)C1C=CC1(C)C2CCC2(C)C(c3ccoc3)OC(=O)C3OC312 (configuration not stated),0.093
6,C#CCCCCCCCCCCCC(O)CC(O)COC(C)=O (configuration not stated),0.118
7,COc1ccc(C(=O)CC(=O)c2ccc(C(C)(C)C)cc2)cc1,0.196
8,Cc1ccc(C(C)C)c(O)c1C(=O)O,0.211
9,CC(=O)O[C@H]1C[C@@H](OC(C)=O)C(C)(C)C2C[C@@H](OC(C)=O)[C@]3(C)C(CC[C@@]4(C)[C@H](c5ccoc5)C(=O)[C@H]5O[C@]543)[C@]21C (some centres not stated),0.157
10,Nc1nc2c(ncn2COCCO)c(=O)[nH]1,0.0714
11,CC1(C)C(=O)[C@H]2C[C@]3(O)C4=CC(=O)O[C@@H](c5ccoc5)[C@@]4(C)CCC3[C@](C)(C2=O)[C@H]1CC(=O)O (some centres not stated),0.118
12,NCCSSCCN,0.108
13,COc1ccc2[nH]c([S@@+]([O-])Cc3ncc(C)c(OC)c3C)nc2c1,0.0455
14,CC(C)NCC(O)c1ccc(O)c(O)c1 (configuration not stated),0.104
15,O=c1cc(-c2ccccc2O)oc2cc(O)ccc12,0.129
16,C#C[C@]1(O)CC[C@H]2[C@@H]3CCc4cc(O)ccc4[C@H]3CC[C@@]21C,0.0857
17,Cc1occc(=O)c1O,0.128
18,CC1(C)CC23C(=O)CCC(O)C2(C)CCC13 (configuration not stated),0.0909
19,CCOc1cc(CC(=O)N[C@@H](CC(C)C)c2ccccc2N2CCCCC2)ccc1C(=O)O,0.25
20,COc1cc2c(cc1OC)C1(O)C(=O)c3ccc(O)c(C(=O)O)c3OC1CO2 (configuration not stated),0.093
21,C[C@@H]1CC[C@@]2(OC1)O[C@H]1[C@@H](O)[C@H]3[C@@H]4CC[C@H]5C[C@@H](O[C@@H]6O[C@H](CO)[C@H](O[C@@H]7O[C@H](CO)[C@@H](O)[C@H](O[C@@H]8OC[C@@H](O)[C@H](O)[C@H]8O)[C@H]7O[C@@H]7O[C@H](CO)[C@H](O)[C@H](O[C@@H]8O[C@H](CO)[C@@H](O)[C@H](O)[C@H]8O)[C@H]7O)[C@H](O)[C@H]6O)[C@H](O)C[C@]5(C)[C@H]4CC[C@]3(C)[C@H]1[C@@H]2C,0.154
22,CCC(C(N)=O)c1ccccc1 (configuration not stated),0.0952

# Of the compounds above, these contain sulfur.
row,Compound,fraction of eclosed F1 progeny that are homozygous ATM8
4,COc1ncnc(NS(=O)(=O)c2ccc(N)cc2)c1OC,0.23
12,NCCSSCCN,0.108
13,COc1ccc2[nH]c([S@@+]([O-])Cc3ncc(C)c(OC)c3C)nc2c1,0.0455

# (next part)

row,Compound,fraction of eclosed F1 progeny that are homozygous ATM8
1,O=NN(CCCl)C(=O)NCCCl,0.0444
2,CCOC(=O)c1ncn2c1CN(C)C(=O)c1cc(F)ccc1-2,0
3,COc1cc(/C=C/c2ccc(O)cc2)cc(OC)c1,0.0682
4,CC1=C(/C=C/C(C)=C/C=C/C(C)=C/C=C/C=C(C)/C=C/C=C(C)/C=C/C2=C(C)C(=O)CCC2(C)C)C(C)(C)CCC1=O [CANTHAXANTHIN (euglenanone)],0.069
5,CC(C(=O)O)c1cccc(C(=O)c2ccccc2)c1 (configuration not stated),0.0909
6,Nc1nc(N)c2nc(CNc3ccc(C(=O)N[C@@H](CCC(=O)O)C(=O)O)cc3)cnc2n1,0.093
7,CC(C)c1c(O)ccc2c1CC[C@H]1C(C)(C)CCC[C@]21C,0.147
8,CCCCC(CC)COC(=O)C=Cc1ccc(OC)cc1 (configuration not stated),0.13
9,CCCC1O[C@@H]2C[C@H]3[C@@H]4CCC5=CC(=O)C=C[C@]5(C)[C@H]4[C@@H](O)C[C@]3(C)[C@]2(C(=O)CO)O1 (some centres not stated),0.0426
10,Cc1cc(O)ccc1Cl,0.162
11,O=C1CN(/N=C/c2ccc(-c3ccc([N+](=O)[O-])cc3)o2)C(=O)N1,0.0769
12,CC1(O)CCC(C(C)(C)O)CC1 (configuration not stated),0.0303
13,CCOC(=O)n1ccn(C)c1=S,0.264
14,COc1cc(O)c2c(c1)C(=O)c1cc(C)cc(O)c1C2=O,0.314
15,CC(C)CC(NC(=O)C(C)NC(=O)CNC(=O)C(NC=O)C(C)C)C(=O)NC(C)C(=O)NC(C(=O)NC(C(=O)NC(C(=O)NC(Cc1c[nH]c2ccccc12)C(=O)NC(CC(C)C)C(=O)NC(Cc1c[nH]c2ccccc12)C(=O)NC(CC(C)C)C(=O)NC(Cc1c[nH]c2ccccc12)C(=O)NC(CC(C)C)C(=O)NC(Cc1c[nH]c2ccccc12)C(=O)NCCO)C(C)C)C(C)C)C(C)C (configuration not stated) [GRAMICIDIN (gramicidin A shown)] (For-VGALAVVVWLWLWLW-NHCH2CH2OH; configuration not given here),0.184
16,CC1(C)S[C@@H]2[C@H](NC(=O)[C@H](C(=O)O)c3ccsc3)C(=O)N2[C@H]1C(=O)O,0.0625
17,C=C[C@H]1CN2CC[C@H]1C[C@H]2[C@H](OC(=O)OCC)c1ccnc2ccc(OC)cc12,0.197
18,C=C[C@](C)(O)CCC=C(C)C,0.232
19,CN[C@@H]1[C@@H](O)[C@@H](O[C@@H]2[C@@H](O)[C@H](O[C@H]3OC(CN)=CC[C@H]3N)[C@@H](N)C[C@H]2N)OC[C@]1(C)O,0.025
20,CC(C)(C)C(=O)C(Oc1ccc(Cl)cc1)n1ccnc1 (configuration not stated),0.14
21,Cc1c(C(=O)O)c(O)cc2c1C(=O)c1c(O)c([C@@H]3O[C@H](CO)[C@@H](O)[C@H](O)[C@H]3O)c(O)c(O)c1C2=O,0.135
22,CC(=O)Oc1c2c(c(CC=C(C)C)c3c1C(=O)C1=C[C@@H]4CC5C(C)(C)OC(C/C=C(\C)C(=O)O)(C4=O)[C@@]15O3)OC(C)(CCC=C(C)C)C=C2 (some centres not stated),0.4

row,Compound,fraction of eclosed F1 progeny that are homozygous ATM8
1,CC(C)=CCC/C(C)=C/CC/C(C)=C/CO,0.0833
2,c1ccc2c(c1)CN1CCCC1=N2,0.125
3,O=C1CN(/N=C/c2ccc([N+](=O)[O-])o2)C(=O)N1,0.176
4,S=c1ccss1,0.143
5,Cc1ccccc1OCC(O)CO (configuration not stated),0.0286
6,C[C@H](N)[C@H](O)c1cccc(O)c1,0.0956
7,CC1(C)S[C@@H]2[C@H](NC(=O)C(C(=O)O)c3ccccc3)C(=O)N2[C@H]1C(=O)O (some centres not stated),0.0303
8,C=C[C@@]1(C)CC(=O)[C@]2(O)[C@@]3(C)[C@@H](O)CCC(C)(C)[C@@H]3[C@H](O)[C@H](OC(C)=O)[C@@]2(C)O1,0.123
9,CN(Cc1cnc2nc(N)nc(N)c2n1)c1ccc(C(=O)NC(CCC(=O)O)C(=O)O)cc1 (racemic),0
10,CCN(CC)C(=S)SSC(=S)N(CC)CC,0.0217
11,C/C(=C(\CCOP(=O)(O)O)SC(=O)c1ccccc1)N(C=O)Cc1cnc(C)nc1N,0.167
12,Nc1ncn[nH]1,0.147
13,COc1ccc(CN2CCNCC2)c(OC)c1OC,0.25
14,COc1ccc(-c2coc3cc(O)ccc3c2=O)c(OC)c1OC,0.13
15,Nc1c2c(nc3ccccc13)CCCC2,0.25
16,CCCCC(CC)COC(=O)C(C#N)=C(c1ccccc1)c1ccccc1 (configuration not stated),0.277
17,O=c1cc(-c2ccccc2)oc2cc(O)cc(O)c12,0.109
18,CC[C@H]1CN2CC[C@H]1C[C@@H]2[C@@H](O)c1ccnc2ccc(OC)cc12,0.0727
19,CC[C@H]1OC(=O)C[C@@H](O)[C@H](C)[C@@H](O[C@@H]2O[C@H](C)[C@@H](O[C@H]3C[C@@](C)(O)[C@@H](O)[C@H](C)O3)[C@H](N(C)C)[C@H]2O)[C@@H](CC=O)C[C@@H](C)C(=O)/C=C/C(C)=C/[C@@H]1CO[C@@H]1O[C@H](C)[C@@H](O)[C@@H](OC)[C@H]1OC,0.2
20,COC(=O)CC1C(C)(C)C(OC(C)=O)[C@@H]2[C@@H](OC(C)=O)[C@]34O[C@@]2(O)[C@]1(C)C3CC[C@]1(C)C4=CC(=O)O[C@H]1c1ccoc1 (some centres not stated),0.264
21,CC(C)=CCCC1(C)C=Cc2c(O)c3c(c(CC=C(C)C)c2O1)OC12C(CC4CC1C(C)(C)OC2(C/C=C(/C)C(=O)O)C4O)C3=O (configuration not stated),0.242
22,CC1(C)O[C@@H]2C[C@H]3[C@@H]4CCC5=CC(=O)C=C[C@]5(C)[C@H]4[C@@H](O)C[C@]3(C)[C@]2(C(=O)CO)O1,0.0185

# 2 of these compounds, reformatted.
row	Compound	fraction of eclosed F1 progeny that are homozygous ATM8
18	CC1(C)CC23C(=O)CCC(O)C2(C)CCC13 (configuration not stated)	0.0909
22	CC1(C)O[C@@H]2C[C@H]3[C@@H]4CCC5=CC(=O)C=C[C@]5(C)[C@H]4[C@@H](O)C[C@]3(C)[C@]2(C(=O)CO)O1	0.0185

# Later entries

row,Compound,fraction of eclosed F1 progeny that are homozygous ATM8
1,O=C(O)Cc1cc(I)c(Oc2cc(I)c(O)c(I)c2)c(I)c1,0.0833
2,CCN(CC)CCOc1ccc2c(c1)C(=O)c1cc(OCCN(CC)CC)ccc1-2,0.279
3,CC(=O)N[C@@H](CS)C(=O)O,0.0938
4,CC(C)N(CCC(C(N)=O)(c1ccccc1)c1ccccn1)C(C)C (configuration not stated),0.0213
5,CC(=O)O[C@H]1C[C@@]2(C)[C@@H](C[C@@H](O)[C@H]3[C@@]4(C)CC[C@@H](O)[C@@H](C)[C@@H]4CC[C@@]32C)/C1=C(\CCC=C(C)C)C(=O)O,0.192
6,COc1cccc(-c2cc(=O)c3cc(OC)ccc3o2)c1,0.114
7,O=c1cc(-c2ccccc2)oc2cc(O)c(O)c(O)c12,0.189
8,CC(C)CCCC(C)N (configuration not stated),0.151
9,COc1cc(C2Oc3cc([C@H]4Oc5cc(O)cc(O)c5C(=O)[C@@H]4O)ccc3OC2CO)ccc1O (some centres not stated),0.177
10,CC[C@@]1(O)C[C@H](O[C@H]2C[C@H](N(C)C)[C@H](O)[C@H](C)O2)c2c(cc3c(c2O)C(=O)c2c(O)cccc2C3=O)[C@H]1C(=O)OC,0.194
11,CCN(CC)CCOC(=O)c1ccc(N)cc1,0.239
12,C[C@H](N)[C@H](O)c1ccc(O)c(O)c1,0.0357
13,CCOC(=O)c1c(C)cc(O)c(C=O)c1O,0.125
14,COc1ccc(-c2coc3c4c(c(CC=C(C)C)c(O)c3c2=O)OC(C)(C)C=C4)cc1,0.122
15,Cc1c(C)c2c(c(C)c1O)CCC(C)(C(=O)O)O2 (configuration not stated),0.0638
16,CC[C@H](C)C(=O)O[C@H]1C[C@@H](C)C=C2C=C[C@H](C)[C@H](CC[C@@H]3C[C@@H](O)CC(=O)O3)[C@H]21,0.039
17,Oc1cccc2[nH]ccc12,0.0825
18,CC(C)C[C@H](N)C(=O)N[C@@H](C)C(=O)O (H-Leu-Ala-OH),0.093
19,O=C1CCC[C@@H]2[C@H]3CCC[N+]4([O-])CCC[C@@H](CN12)[C@@H]34 (some centres not stated),0.214
20,CC(C)n1c(/C=C/C(O)CC(O)CC(=O)O)c(-c2ccc(F)cc2)c2ccccc21 (configuration not stated),0.143
21,O=[N+]([O-])O[C@@H]1CO[C@H]2[C@@H]1OC[C@@H]2O,0.0882
